Not every entry of the source has a single result; some have several. Only these are listed. The source may hold further records. Values given together differ for a reason that is not stated; dose, time, organism, isomer or construct need not be as stated for each record.

Sequences of proteins named here, by UniProt entry; tags and fusion partners are left off. Residues count along the entry.
UniProt P22888, 27-699 limits assumed: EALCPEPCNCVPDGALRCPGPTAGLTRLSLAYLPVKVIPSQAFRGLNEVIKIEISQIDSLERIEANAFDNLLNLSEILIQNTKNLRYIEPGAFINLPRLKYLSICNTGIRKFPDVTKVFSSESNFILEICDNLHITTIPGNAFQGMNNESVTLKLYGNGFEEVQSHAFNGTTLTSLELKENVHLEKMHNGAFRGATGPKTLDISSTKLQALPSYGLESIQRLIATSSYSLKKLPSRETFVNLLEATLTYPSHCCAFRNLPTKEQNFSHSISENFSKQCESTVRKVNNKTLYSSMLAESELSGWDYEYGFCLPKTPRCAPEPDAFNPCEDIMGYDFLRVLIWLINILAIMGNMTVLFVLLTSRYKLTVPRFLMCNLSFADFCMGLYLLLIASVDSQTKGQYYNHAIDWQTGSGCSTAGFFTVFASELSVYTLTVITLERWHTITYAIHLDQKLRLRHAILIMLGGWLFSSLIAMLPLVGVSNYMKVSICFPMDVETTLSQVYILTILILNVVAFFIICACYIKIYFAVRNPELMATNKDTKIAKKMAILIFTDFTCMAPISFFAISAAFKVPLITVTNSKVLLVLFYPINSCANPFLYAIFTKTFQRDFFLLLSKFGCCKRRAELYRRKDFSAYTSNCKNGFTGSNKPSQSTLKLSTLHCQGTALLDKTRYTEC

Assay [1] deals with hLH/CGR (Homo sapiens, UniProt P22888). Nature of the assay: cAMP (HTRF) in CHO cells transfected with hLH/CGR. Particulars: CHO assays. (Time-resolved FRET reads energy transfer from a long-lived donor to a nearby acceptor.)
The test system of assay [2] is human granulosa cells. Nature of the assay: Estradiol production from pooled human granulosa-lutein cells (Boston IVF). Particulars: second culture (Figure 4B).

On to `COc1cc2c(cc1-c1cnn(CCO)c1)-c1c(c(C(=O)N(C)C(C)(C)C)nn1-c1cc(Cl)cc(Cl)c1)CO2` [TOP5300], for which, in assay [1], the “Ratio of EC50 LHR/FSHR” value is “approximately 6 and 6”. For the same molecule, in assay [2], the “fold greater maximal estradiol response than rec-hFSH” value was 7 fold and approximately 7 fold.

Values taken from article PMC7845544 (Frontiers in Pharmacology, 2021).
